According to the supplement of paper PMC3334620:
Whole data set: some 33,000 sequences, median “E-score (-0.5 to 0.5)” near -0.0034, cut for the highest 2% near 0.25. The list shows a part of the results.

Target: T1, Yap3 (UniProt P38749)
T1 sequence: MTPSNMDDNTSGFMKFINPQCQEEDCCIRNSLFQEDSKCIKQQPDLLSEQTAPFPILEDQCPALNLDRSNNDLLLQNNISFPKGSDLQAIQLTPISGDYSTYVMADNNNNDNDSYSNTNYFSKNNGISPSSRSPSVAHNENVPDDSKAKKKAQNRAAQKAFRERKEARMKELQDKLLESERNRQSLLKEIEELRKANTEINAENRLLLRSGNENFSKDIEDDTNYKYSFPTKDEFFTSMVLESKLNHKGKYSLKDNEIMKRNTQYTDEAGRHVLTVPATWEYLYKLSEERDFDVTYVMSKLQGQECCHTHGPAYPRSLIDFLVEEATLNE
Experiment: PBM E-score (8-mer binding enrichment) (E-score (-0.5 to 0.5)); higher = stronger / more preferred TF binding
Details: protein concentration: 100 nM; construct: GST-full length
Procedure, shortened: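 Full-length yeast transcription factors or their DNA-binding domains, GST-tagged and expressed with PURExpress, were applied at about 100-200 nM to universal all-10-mer Agilent arrays. These arrays had been made double-stranded by primer extension on fresh or once-stripped slides. Detection used fluorescent anti-GST, normalisation used masliner, and E-scores for ungapped eight-base words pooled with reverse complements came from the Universal PBM Analysis Suite.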

Row | Sequence | PBM E-score
1 | CGTTACAC | -0.0321
2 | GAAGCTTC | -0.0855
3 | AAAAATGC | 0.106
4 | GAATTCAA | 0.119
5 | GGCATCCA | -0.174
6 | CCGAGGTA | -0.166
7 | GGTTAGCA | 0.041
8 | AGATGCAC | -0.199
9 | CAAAGTCA | 0.0697
10 | CTTGCCGC | -0.119
11 | CTATTCGA | 0.0725
12 | GCTCCGAA | 0.0384
13 | AGTATTCC | 0.135
14 | CAGCACTA | -0.0742
15 | TGTCCACA | 0.0887
16 | TATTTGCA | 0.0501
17 | AAGTATTG | 0.11
18 | CCCAGTTC | -0.0993
19 | GGAGCCGA | -0.265
20 | GTGTTTGA | 0.204
21 | ACACTGAT | 0.0678
22 | AGGAGATC | -0.0498
23 | AGCCTTAA | -0.0527
24 | AAGGGTAC | -0.0636
25 | AACAAGTG | 0.00726

Row | Sequence | PBM E-score
26 | GTGGAGCA | -0.179
27 | AAGCATTG | 0.00051
28 | GAACGGAC | -0.0867
29 | CGACCCAC | -0.219
30 | AGGAAGCC | -0.0635
31 | AATCTTCA | 0.168
32 | CCACGTAC | -0.105
33 | CAGCGAGA | -0.0685
34 | ACGTGAAG | 0.0589
35 | ATGAGCAC | -0.11
36 | CGGGGAAG | -0.214
37 | AGCTATAA | 0.0858
38 | AAAGAAAC | 0.0615
39 | ATTCTGGC | -0.121
40 | GATCCAGC | -0.0342
41 | AAAAATCC | 0.136
42 | CCATGATC | -0.121
43 | ATCCACCC | -0.00023
44 | TCAGTGAA | 0.0905
45 | ACCTGGCG | -0.211
46 | GCTAGGGA | -0.055
47 | GGCCTAAC | -0.0545
48 | CAACTGCC | 0.0195
49 | CTAAAGAC | -0.0437
50 | CCAAGACC | -0.144

Row | Sequence | PBM E-score
51 | CTTTTTCA | 0.224
52 | ATCGTTCA | 0.129
53 | AGATATAA | 0.211
54 | AACCTATT | 0.0533
55 | AGGGAACG | -0.134
56 | ACTGATTG | -0.0496
57 | CCCTAAGA | -0.0841
58 | AGCTCGGG | -0.195
59 | GTTAGAAC | 0.0907
60 | GAGTAAAC | -0.00262
61 | AATGCTTC | 0.0674
62 | AGTACCAG | 0.0195
63 | AGTCTGTG | -0.215
64 | GGACGTGA | -0.0912
65 | ACCTCTGC | -0.127
66 | AATCAGTA | 0.0561
67 | GCGATGTA | 0.0567
68 | CGGGCATA | -0.0686
69 | AAGCTGCG | -0.0977
70 | CACTACAC | -0.0713
71 | TAACCGGA | 0.00585
72 | CTTTGGCC | -0.00142
73 | CGTTTGGA | -0.123
74 | TGATGTAA | 0.145
75 | ACCTTGAT | -0.0234

Some of the entries so far, tab-delimited.
Row	Sequence	PBM E-score
4	GAATTCAA	0.119
42	CCATGATC	-0.121
69	AAGCTGCG	-0.0977

(cont.)

Row | Sequence | PBM E-score
76 | GTGGTTCA | 0.191
77 | TCAACCAA | 0.071
78 | AATGAGAC | -0.0964
79 | GCGTCTCA | -0.0527
80 | AACAGGGC | 0.0684
81 | ACCGCCCA | -0.208
82 | AAGAGACA | 0.191
83 | AATGTGGG | 0.194
84 | ACTGGCCC | -0.0634
85 | CCAGGGGG | -0.411
86 | CCGGGGTA | -0.165
87 | GCGAACAA | 0.229
88 | CTCAAATC | 0.0664
89 | CCACGGCC | -0.235
90 | AACCAAAG | 0.146
91 | CTTTTTTA | 0.147
92 | CAACATAG | 0.144
93 | AGCATTCC | 0.0235
94 | CAAACCTA | 0.181
95 | ATTATGCG | 0.297
96 | ATAGGATC | 0.0479
97 | TGATATCA | 0.109
98 | CTATCACA | 0.12
99 | GCTTACCA | 0.182
100 | ACTGTGAG | 0.0462

From entry 41 as far as 43, copied from above:
Row | Sequence | PBM E-score
41 | AAAAATCC | 0.136
42 | CCATGATC | -0.121
43 | ATCCACCC | -0.00023

(continued)

Row | Sequence | PBM E-score
101 | ACCTACTA | 0.0411
102 | TTACCGAA | 0.202
103 | ACGCATCG | 0.0328
104 | GTGATCTA | 0.0493
105 | CATACGTA | 0.156
106 | ACCACATA | 0.184
107 | GGGCATAA | 0.0486
108 | ACTCTTGA | -0.137
109 | TCAATTAA | 0.143
110 | ATAACTCA | 0.115
111 | CTCTTTAA | -0.0493
112 | GAACGTAC | -0.0517
113 | CGTTGGGC | -0.108
114 | GAACTCTA | -0.0396
115 | GGAGCGAC | -0.113
116 | CCAAAAAA | 0.177
117 | GCTCCCCC | -0.41
118 | AGGCTGAT | -0.0918
119 | CGGCATAC | -0.0416
120 | AAAAACGT | 0.137
121 | AGGCTTAC | 0.00475
122 | ATTACACG | 0.0795
123 | AACAAATA | 0.25
124 | CACACGAC | -0.0959
125 | AAGTTGTG | 0.216

Row | Sequence | PBM E-score
126 | TAAACGCA | 0.113
127 | AGATGAAT | 0.069
128 | AGGGTAAG | 0.0161
129 | GCTAGGTA | -0.00222
130 | TCCCACGA | -0.0193
131 | CCGGACTA | 0.0299
132 | AGTATTGC | 0.0437
133 | CTCTGCGC | -0.0784
134 | GGTACAAC | 0.0551
135 | CTAGCCTA | -0.122
136 | CCTGACGA | 0.03
137 | CGCCCTTC | -0.232
138 | TAGCGTAA | 0.237
139 | AGGACGGG | -0.293
140 | TTCGGAAA | 0.13
141 | CAACCAAC | -0.074
142 | AGCCTCCA | -0.245
143 | ATTAGATA | 0.178
144 | GAATTTCA | 0.0784
145 | CTCATTGC | 0.0306
146 | CCCTCTCG | -0.246
147 | CCAGGCAC | -0.17
148 | AGTGCCGA | -0.05
149 | GAGATAGC | -0.223
150 | GAACTTCA | 0.0514

Row | Sequence | PBM E-score
151 | GGTGTCAA | -0.0108
152 | GCTAAAAC | 0.0705
153 | CGCCTCAC | -0.0806
154 | CAGAGTTC | -0.167
155 | CCCGCTAG | -0.135
156 | CAAATGCG | 0.134
157 | ATTGAACC | 0.1
158 | AATATCCC | 0.0746
159 | ATTAGGGC | -0.0372
160 | AACGCTGT | 0.0505
161 | AGCCGCAC | -0.111
162 | CATCGTTC | 0.0252
163 | AACGTCAG | -0.161
164 | ACATCTAC | 0.126
165 | GGGTTCGA | -0.0252
166 | TGAGGGCA | -0.0975
167 | GGGTCAAC | -0.0671
168 | GAAGGAAA | -0.00387
169 | GCAGTTAA | 0.0944
170 | ATTCCTTG | -0.113
171 | TCCTACCA | -0.175
172 | TGCTACAA | 0.0484
